Data reported in article PMC11904182.
Results are given in words; binding and its absence hold for the method and conditions named. In cells and extracts the contact can be indirect. Some binding calls cover weakened binding; strength is not graded here. For some assays here: Sequences can lack the tags named with a protein.

Chains of the proteins cited; added tags and fusions are not shown.
UniProt P40763: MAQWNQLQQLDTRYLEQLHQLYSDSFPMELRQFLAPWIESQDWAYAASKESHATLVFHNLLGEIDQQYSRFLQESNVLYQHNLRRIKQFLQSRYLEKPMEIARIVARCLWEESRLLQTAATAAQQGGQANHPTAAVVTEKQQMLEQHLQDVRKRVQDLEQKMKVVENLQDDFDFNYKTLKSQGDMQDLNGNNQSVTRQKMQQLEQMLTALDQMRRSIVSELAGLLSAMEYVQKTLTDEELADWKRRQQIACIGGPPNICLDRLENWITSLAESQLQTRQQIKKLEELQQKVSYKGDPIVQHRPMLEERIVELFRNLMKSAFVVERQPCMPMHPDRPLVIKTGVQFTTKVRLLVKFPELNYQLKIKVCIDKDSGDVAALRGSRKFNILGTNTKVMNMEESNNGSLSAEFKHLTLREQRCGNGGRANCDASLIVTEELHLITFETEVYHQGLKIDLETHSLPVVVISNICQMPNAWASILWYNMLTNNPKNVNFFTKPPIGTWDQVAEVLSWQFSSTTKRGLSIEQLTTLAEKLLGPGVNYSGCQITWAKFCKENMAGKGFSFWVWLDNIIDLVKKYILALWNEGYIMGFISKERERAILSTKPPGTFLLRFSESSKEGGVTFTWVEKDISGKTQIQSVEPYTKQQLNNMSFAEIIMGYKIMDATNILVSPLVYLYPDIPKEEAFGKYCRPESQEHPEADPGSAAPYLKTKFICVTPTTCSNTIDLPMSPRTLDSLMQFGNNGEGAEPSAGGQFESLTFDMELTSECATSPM

Legend:
[1] = molecular target: STAT3 (endogenous, SNU-216 cells) (human (endogenous in SNU-216)) (UniProt P40763); experiment: co-IP; endogenous proteins in SNU-216 cells; 4x10^7 cells lysed in 500 uL lysis buffer; pre-cleared lysate with antibody at 4 °C for 3 h, protein A/G agarose beads at 4 °C overnight; beads washed with PBS 10 times; immunoblot
HA-tagged STAT3 (human) = HA-tagged STAT3 (human) (UniProt P40763); experiment: co-IP; HEK293T transiently transfected with HA-tagged STAT3, Flag-tagged SRF, individually or both; equivalent lysates immunoprecipitated with anti-HA or anti-Flag antibody and immunoblotted

binding [1] | binding (HA-tagged STAT3 (human)) | Binder
binds | – | SRF (endogenous, SNU-216 cells) (protein, UniProt P11831 1-508) MLPTQAGAAAALGRGSALGGSLNRTPTGRPGGGGGTRGANGGRVPGNGAGLGPGRLEREAAAAAATTPAPTAGALYSGSEGDSESGEEEELGAERRGLKRSLSEMEIGMVVGGPEASAAATGGYGPVSGAVSGAKPGKKTRGRVKIKMEFIDNKLRRYTTFSKRKTGIMKKAYELSTLTGTQVLLLVASETGHVYTFATRKLQPMITSETGKALIQTCLNSPDSPPRSDPTTDQRMSATGFEETDLTYQVSESDSSGETKDTLKPAFTVTNLPGTTSTIQTAPSTSTTMQVSSGPSFPITNYLAPVSASVSPSAVSSANGTVLKSTGSGPVSSGGLMQLPTSFTLMPGGAVAQQVPVQAIQVHQAPQQASPSRDSSTDLTQTSSSGTVTLPATIMTSSVPTTVGGHMMYPSPHAVMYAPTSGLGDGSLTVLNAFSQAPSTMQVSHSQVQEPGGVPQVFLTASSGTVQIPVSAVQLHQMAVIGQQAGSSSNLTELQVVNLDTAHSTKSE
– | binds | Flag-tagged SRF (protein, UniProt P11831 1-508) MLPTQAGAAAALGRGSALGGSLNRTPTGRPGGGGGTRGANGGRVPGNGAGLGPGRLEREAAAAAATTPAPTAGALYSGSEGDSESGEEEELGAERRGLKRSLSEMEIGMVVGGPEASAAATGGYGPVSGAVSGAKPGKKTRGRVKIKMEFIDNKLRRYTTFSKRKTGIMKKAYELSTLTGTQVLLLVASETGHVYTFATRKLQPMITSETGKALIQTCLNSPDSPPRSDPTTDQRMSATGFEETDLTYQVSESDSSGETKDTLKPAFTVTNLPGTTSTIQTAPSTSTTMQVSSGPSFPITNYLAPVSASVSPSAVSSANGTVLKSTGSGPVSSGGLMQLPTSFTLMPGGAVAQQVPVQAIQVHQAPQQASPSRDSSTDLTQTSSSGTVTLPATIMTSSVPTTVGGHMMYPSPHAVMYAPTSGLGDGSLTVLNAFSQAPSTMQVSHSQVQEPGGVPQVFLTASSGTVQIPVSAVQLHQMAVIGQQAGSSSNLTELQVVNLDTAHSTKSE
